The text below walks through data of PMC3624461.

Sequences of proteins named here, by UniProt entry; tags and fusion partners are left off. A change or cut given only in a name is not applied to a line headed by its entry. Residues count along the entry.
UniProt Q8NBP7, residues 31-454: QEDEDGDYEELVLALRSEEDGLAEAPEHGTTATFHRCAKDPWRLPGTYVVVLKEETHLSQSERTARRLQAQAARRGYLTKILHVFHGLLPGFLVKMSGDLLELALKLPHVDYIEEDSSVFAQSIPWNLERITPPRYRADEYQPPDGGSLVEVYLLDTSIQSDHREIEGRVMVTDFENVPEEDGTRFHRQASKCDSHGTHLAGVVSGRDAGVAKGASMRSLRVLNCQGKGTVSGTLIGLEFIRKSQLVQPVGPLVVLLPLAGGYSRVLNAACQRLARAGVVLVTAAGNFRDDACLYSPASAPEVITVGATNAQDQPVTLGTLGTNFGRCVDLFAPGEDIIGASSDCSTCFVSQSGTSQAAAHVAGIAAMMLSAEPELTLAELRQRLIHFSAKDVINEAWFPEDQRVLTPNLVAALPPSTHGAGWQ
UniProt Q06481, residues 32-692: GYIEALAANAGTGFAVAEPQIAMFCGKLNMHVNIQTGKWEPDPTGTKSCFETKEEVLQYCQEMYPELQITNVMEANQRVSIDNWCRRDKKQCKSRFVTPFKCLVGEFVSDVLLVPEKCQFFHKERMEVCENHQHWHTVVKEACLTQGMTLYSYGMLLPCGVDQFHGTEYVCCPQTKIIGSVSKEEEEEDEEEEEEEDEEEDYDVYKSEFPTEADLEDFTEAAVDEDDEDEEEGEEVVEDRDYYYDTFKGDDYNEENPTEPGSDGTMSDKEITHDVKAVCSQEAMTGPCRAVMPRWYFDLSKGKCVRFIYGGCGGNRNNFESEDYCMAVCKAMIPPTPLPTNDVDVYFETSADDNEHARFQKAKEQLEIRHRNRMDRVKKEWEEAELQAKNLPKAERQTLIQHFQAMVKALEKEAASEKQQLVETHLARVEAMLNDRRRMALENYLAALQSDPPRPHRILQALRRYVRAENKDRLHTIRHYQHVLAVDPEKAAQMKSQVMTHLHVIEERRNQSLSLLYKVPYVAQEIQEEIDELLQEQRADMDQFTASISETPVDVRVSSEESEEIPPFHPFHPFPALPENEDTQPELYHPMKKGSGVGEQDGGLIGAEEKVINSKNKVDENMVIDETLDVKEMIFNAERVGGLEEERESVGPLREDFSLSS
UniProt P05067, residues 18-699: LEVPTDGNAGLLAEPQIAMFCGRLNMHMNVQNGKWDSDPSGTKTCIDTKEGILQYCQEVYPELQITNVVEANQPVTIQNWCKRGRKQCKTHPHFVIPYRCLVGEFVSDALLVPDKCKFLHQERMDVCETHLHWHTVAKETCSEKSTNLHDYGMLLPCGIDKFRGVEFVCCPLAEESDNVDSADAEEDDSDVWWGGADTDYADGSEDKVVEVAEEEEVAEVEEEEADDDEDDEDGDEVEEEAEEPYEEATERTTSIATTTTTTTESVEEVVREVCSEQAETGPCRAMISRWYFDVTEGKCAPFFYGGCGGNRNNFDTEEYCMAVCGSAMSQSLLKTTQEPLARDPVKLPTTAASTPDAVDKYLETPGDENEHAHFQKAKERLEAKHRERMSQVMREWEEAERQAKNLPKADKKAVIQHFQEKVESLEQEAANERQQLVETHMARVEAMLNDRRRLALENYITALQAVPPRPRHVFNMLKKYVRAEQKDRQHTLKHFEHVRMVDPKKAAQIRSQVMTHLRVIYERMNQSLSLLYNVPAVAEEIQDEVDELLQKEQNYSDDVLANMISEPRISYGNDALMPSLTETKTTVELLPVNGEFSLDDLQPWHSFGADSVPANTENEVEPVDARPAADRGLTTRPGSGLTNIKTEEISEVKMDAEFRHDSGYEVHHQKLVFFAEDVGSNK

No constants are given. Whether binding was seen depends on the method and setting.

For this experiment, the target named is PCSK9ΔCT (C-terminal truncation of PCSK9 lacking the CHRD, residues 1–454) (human) (UniProt Q8NBP7). Kind of experiment: co-IP; purified recombinant proteins, 3 μg/ml each, mixed at pH 6.0 in IP buffer; J16- or IC-coated protein A Dynabeads, 30 min; eluted by boiling; Western blot; both purified. (A western blot detects proteins with antibodies after separation by electrophoresis.)

On to “APLP2-extracellular domain (ECD) (amino acids 1–692) (from UniProt Q06481 32-692) (domain or fragment)”, for which the binding result is “no binding (tested: 3 μg/ml)”. Turning to “Amyloid precursor protein (APP)-ECD (amino acids 1–699) (from UniProt P05067 18-699) (domain or fragment)”, the binding entry is “no binding (tested: 3 μg/ml)”.
